Results: article PMC12448474
No constants are given. Whether binding was seen depends on the method and setting. Some results given as binding are weak or reduced against the parent protein; the word gives no strength.

Target: T1, human MON1A (residues 98−652) (human) (UniProt Q86VX9)
T1 sequence: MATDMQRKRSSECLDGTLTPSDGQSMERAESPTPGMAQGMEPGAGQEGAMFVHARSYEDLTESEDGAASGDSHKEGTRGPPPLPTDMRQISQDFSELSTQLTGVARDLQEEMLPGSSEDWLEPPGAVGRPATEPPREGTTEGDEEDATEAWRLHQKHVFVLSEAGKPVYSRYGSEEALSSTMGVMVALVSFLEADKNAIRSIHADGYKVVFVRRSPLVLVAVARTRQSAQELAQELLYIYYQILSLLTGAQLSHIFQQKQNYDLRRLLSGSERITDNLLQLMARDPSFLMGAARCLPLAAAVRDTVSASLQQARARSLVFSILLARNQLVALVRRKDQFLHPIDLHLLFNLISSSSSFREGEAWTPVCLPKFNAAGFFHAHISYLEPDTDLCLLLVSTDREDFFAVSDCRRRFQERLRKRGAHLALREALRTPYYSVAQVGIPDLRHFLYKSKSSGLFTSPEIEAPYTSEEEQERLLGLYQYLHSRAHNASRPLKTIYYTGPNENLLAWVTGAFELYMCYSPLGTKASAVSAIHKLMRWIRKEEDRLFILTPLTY
Assay: cryo-EM structure; HsMON1A (98−652)−CCZ1−RAB7A^N125I complex co-expressed in Sf9 and purified, tags removed; single-particle reconstruction at 2.85 Å, C1 symmetry; both purified

B1: human CCZ1 full length (residues 1−482) (protein, UniProt P86791 1-482)
chain: MAAAAAGAGSGPWAAQEKQFPPALLSFFIYNPRFGPREGQEENKILFYHPNEVEKNEKIRNVGLCEAIVQFTRTFSPSKPAKSLHTQKNRQFFNEPEENFWMVMVVRNPIIEKQSKDGKPVIEYQEEELLDKVYSSVLRQCYSMYKLFNGTFLKAMEDGGVKLLKERLEKFFHRYLQTLHLQSCDLLDIFGGISFFPLDKMTYLKIQSFINRMEESLNIVKYTAFLYNDQLIWSGLEQDDMRILYKYLTTSLFPRHIEPELAGRDSPIRAEMPGNLQHYGRFLTGPLNLNDPDAKCRFPKIFVNTDDTYEELHLIVYKAMSAAVCFMIDASVHPTLDFCRRLDSIVGPQLTVLASDICEQFNINKRMSGSEKEPQFKFIYFNHMNLAEKSTVHMRKTPSVSLTSVHPDLMKILGDINSDFTRVDEDEEIIVKAMSDYWVVGKKSDRRELYVILNQKNANLIEVNEEVKKLCATQFNNIFFLD
With B1 the binding was “binds”.
